Data: publication PMC2957426
Results are given in words; binding and its absence hold for the method and conditions named. Some binding calls cover weakened binding; strength is not graded here. Sequences can lack the tags named with a protein.

Assays:
Experiment in all cases: flow cytometry on cells; HEK cells cotransfected with plasmids for EGFP and RAE-1δ, RAE-1ε or RAE-1γ, 3 days of culture; incubated with increasing concentrations of NKG2D/Fc (15 min on ice, PBS 1% FCS, 0.02% sodium azide), then PE-labeled anti-human IgG-Fc; read-out: PE MFI on EGFP positive cells minus PE MFI on EGFP negative cells; only the binder purified
RAE-1γ (mouse) = molecular target: T1, RAE-1γ (mouse) (UniProt O08604)
T1 sequence: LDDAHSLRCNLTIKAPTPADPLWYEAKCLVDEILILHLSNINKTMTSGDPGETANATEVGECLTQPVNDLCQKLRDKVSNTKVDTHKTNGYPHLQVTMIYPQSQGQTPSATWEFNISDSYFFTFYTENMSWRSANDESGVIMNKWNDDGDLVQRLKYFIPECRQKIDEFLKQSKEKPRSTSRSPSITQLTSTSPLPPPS

RAE-1δ (mouse) = molecular target: T2, RAE-1δ (mouse) (UniProt Q9JI58)
T2 sequence: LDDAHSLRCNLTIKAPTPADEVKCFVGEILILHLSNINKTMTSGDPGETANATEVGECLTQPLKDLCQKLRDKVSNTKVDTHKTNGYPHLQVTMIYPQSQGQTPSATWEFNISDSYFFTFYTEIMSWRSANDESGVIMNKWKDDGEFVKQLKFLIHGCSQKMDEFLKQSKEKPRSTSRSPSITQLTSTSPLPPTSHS

RAE-1ε (mouse) = molecular target: T3, RAE-1ε (mouse) (UniProt Q9CZQ6)
T3 sequence: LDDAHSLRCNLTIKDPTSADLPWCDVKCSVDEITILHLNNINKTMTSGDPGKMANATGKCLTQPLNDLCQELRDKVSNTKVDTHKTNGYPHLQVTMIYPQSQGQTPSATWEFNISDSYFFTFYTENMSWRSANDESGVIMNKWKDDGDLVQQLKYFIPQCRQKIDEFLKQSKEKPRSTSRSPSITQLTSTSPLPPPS

- binding (RAE-1γ (mouse)): binds
- binding (RAE-1δ (mouse)): binds weakly
- binding (RAE-1ε (mouse)): binds
B1: mouse recombinant NKG2D/Fc chimera (Fc fusion, UniProt O54709 90-232)
chain: FKETFQPVLCNKEVPVSSREGYCGPCPNNWICHRNNCYQFFNEEKTWNQSQASCLSQNSSLLKIYSKEEQDFLKLVKSYHWMGLVQIPANGSWQWEDGSSLSYNQLTLVEIPKGSCAVYGSSFKAYTEDCANLNTYICMKRAV
